The values that follow come from publication PMC10444890.

Chains of the proteins cited; added tags and fusions are not shown. Lines headed by an entry give the natural chain unless they say otherwise; changes in a name come on top.
UniProt Q9VU14: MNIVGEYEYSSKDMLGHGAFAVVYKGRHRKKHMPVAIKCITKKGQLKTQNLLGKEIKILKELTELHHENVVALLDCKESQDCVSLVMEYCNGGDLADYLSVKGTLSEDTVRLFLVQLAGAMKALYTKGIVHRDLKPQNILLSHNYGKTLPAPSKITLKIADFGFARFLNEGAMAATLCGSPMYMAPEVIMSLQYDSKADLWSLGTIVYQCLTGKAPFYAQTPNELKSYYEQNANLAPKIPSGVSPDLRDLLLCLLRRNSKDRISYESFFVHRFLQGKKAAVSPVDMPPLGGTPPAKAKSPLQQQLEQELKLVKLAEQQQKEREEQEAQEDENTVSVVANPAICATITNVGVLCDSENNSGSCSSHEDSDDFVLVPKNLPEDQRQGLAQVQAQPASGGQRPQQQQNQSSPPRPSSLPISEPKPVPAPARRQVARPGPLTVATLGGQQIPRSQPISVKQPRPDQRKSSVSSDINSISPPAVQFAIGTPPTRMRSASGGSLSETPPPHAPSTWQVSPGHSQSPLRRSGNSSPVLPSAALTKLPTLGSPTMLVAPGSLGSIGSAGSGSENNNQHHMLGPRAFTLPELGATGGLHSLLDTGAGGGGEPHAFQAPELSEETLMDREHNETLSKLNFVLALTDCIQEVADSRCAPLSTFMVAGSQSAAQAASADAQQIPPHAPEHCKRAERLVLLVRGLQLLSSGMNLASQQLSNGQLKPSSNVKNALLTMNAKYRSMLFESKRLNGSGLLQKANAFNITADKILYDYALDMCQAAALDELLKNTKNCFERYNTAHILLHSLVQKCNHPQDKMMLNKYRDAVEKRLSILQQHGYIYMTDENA

Results are given in words; binding and its absence hold for the method and conditions named. In cells and extracts the contact can be indirect. A result given as binding can be weak or reduced; the word gives no strength.

In this assay the target is Flag-tagged Leon (Drosophila) (UniProt Q9VZU7). Description: co-IP; Drosophila adult head lysates of flies expressing Flag-Leon with GMR-Gal4, immunoprecipitated with anti-IgG or anti-Flag antibody, immunoblotted for endogenous Atg1. (In western blotting, separated proteins are transferred to a membrane and probed.)

As to “endogenous Atg1 (from UniProt Q9VU14) (enzyme)”, the binding entry is reported as “binds”.
